The values below come from patent publication US20030167129A1, “Binding compounds and methods for identifying binding compounds” (priority 2000, published 2003).

Chains of the proteins cited; added tags and fusions are not shown.
UniProt P61073: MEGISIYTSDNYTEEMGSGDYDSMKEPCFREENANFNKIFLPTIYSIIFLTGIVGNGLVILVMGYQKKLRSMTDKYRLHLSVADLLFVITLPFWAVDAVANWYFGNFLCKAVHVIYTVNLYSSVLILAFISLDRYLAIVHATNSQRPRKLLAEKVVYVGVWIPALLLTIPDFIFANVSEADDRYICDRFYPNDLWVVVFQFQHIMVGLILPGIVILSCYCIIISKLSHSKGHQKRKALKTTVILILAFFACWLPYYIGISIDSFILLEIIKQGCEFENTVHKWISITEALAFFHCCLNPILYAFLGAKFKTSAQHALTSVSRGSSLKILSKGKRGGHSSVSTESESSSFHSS

This assay deals with CXCR4-GST (human) (UniProt P61073). Nature of the assay: phage display (NEB PhD C7C) on immobilized functional CXCR4, elution with SDF1α or glycine pH 2.2.

These are yes or no findings as the source states them, for the method shown. Some results given as binding are weak or reduced against the parent protein; the word gives no strength.

For SLTEPSL [Phage sequence S-L-T-E-P-S-L], the binding result is recorded as “binds”.
